# Experimental data published in the supplement of paper PMC8728848.
# The other results are listed elsewhere or left out.
# B1: SUN4P (Saccharomyces cerevisiae), P53616 (protein)
# chain: MGSSHHHHHHSSGLVPRGSHNGSIYGDLADFSGPYEKFEDGTIPCGQFPSGQGVIPISWLDEGGWSGVENTDTSTGGSCKEGSYCSYACQPGMSKTQWPSDQPSDGRSIGGLLCKDGYLYRSNTDTDYLCEWGVDAAYVVSELSNDVAICLTDYPGTENMVIPTYVQAGDSLPLTVVDQDTYYTWQGLKTSAQYYVNNAGISVEDACVWGSSSSGVGNWAPLNFGAGSSDGVAYLSLIPNPNNGNALNFNVKIVAADDSSTVNGECIYENGSFSGGSDGCTVSVTAGKAKFVLYN
# Key:
# Test in all cases: glycan array binding signal (z-score within array); higher = stronger binding
# Settings in all cases: glycan notation: IUPAC condensed, linker removed; mutation: R276L
# [1] = target: Gal(b1-4)GlcNAc(b1-3)Gal(b1-4)GlcNAc(b1-3)Gal(b1-4)GlcNAc(b1-3)Gal(b1-4)GlcNAc(b1-2)Man(a1-3)[Gal(b1-4)GlcNAc(b1-3)Gal(b1-4)GlcNAc(b1-3)Gal(b1-4)GlcNAc(b1-3)Gal(b1-4)GlcNAc(b1-2)Man(a1-6)]Man(b1-4)GlcNAc(b1-4)GlcNAc
# Procedure, shortened: (§1)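 The Consortium for Functional Glycomics database supplied 3228 glycan arrays, of which those lacking an available protein sequence were dropped. The binding signal, a within-array Z-score, was averaged across arrays of the same protein sequence and across linkers. Negative scores can be read as non-binding.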
# [2] = target: Gal(b1-4)GlcNAc(b1-3)Gal(b1-4)GlcNAc(b1-3)Gal(b1-4)GlcNAc(b1-3)Gal(b1-4)GlcNAc(b1-2)Man(a1-3)[Gal(b1-4)GlcNAc(b1-3)Gal(b1-4)GlcNAc(b1-3)Gal(b1-4)GlcNAc(b1-3)Gal(b1-4)GlcNAc(b1-2)Man(a1-6)]Man(b1-4)GlcNAc(b1-4)[Fuc(a1-6)]GlcNAc
# Procedure, shortened: as §1
# [3] = target: Gal(b1-4)GlcNAc(b1-3)Gal(b1-4)GlcNAc(b1-3)Gal(b1-4)GlcNAc(b1-3)Gal(b1-4)GlcNAc(b1-2)[Gal(b1-4)GlcNAc(b1-3)Gal(b1-4)GlcNAc(b1-3)Gal(b1-4)GlcNAc(b1-3)Gal(b1-4)GlcNAc(b1-6)]Man(a1-6)[Gal(b1-4)GlcNAc(b1-3)Gal(b1-4)GlcNAc(b1-3)Gal(b1-4)GlcNAc(b1-3)Gal(b1-4)GlcNAc(b1-2)Man(a1-3)]Man(b1-4)GlcNAc(b1-4)[Fuc(a1-6)]GlcNAc
# Procedure, shortened: as §1
# [4] = target: Gal(b1-4)GlcNAc(b1-3)Gal(b1-4)GlcNAc(b1-3)Gal(b1-4)GlcNAc(b1-3)Gal(b1-4)GlcNAc(b1-3)Gal(b1-4)GlcNAc(b1-2)Man(a1-3)[Gal(b1-4)GlcNAc(b1-3)Gal(b1-4)GlcNAc(b1-3)Gal(b1-4)GlcNAc(b1-3)Gal(b1-4)GlcNAc(b1-3)Gal(b1-4)GlcNAc(b1-2)Man(a1-6)]Man(b1-4)GlcNAc(b1-4)GlcNAc
# Procedure, shortened: as §1
# [5] = target: Gal(b1-4)GlcNAc(b1-3)Gal(b1-4)GlcNAc(b1-3)Gal(b1-4)GlcNAc(b1-3)Gal(b1-4)GlcNAc(b1-3)Gal(b1-4)GlcNAc(b1-2)Man(a1-3)[Gal(b1-4)GlcNAc(b1-3)Gal(b1-4)GlcNAc(b1-3)Gal(b1-4)GlcNAc(b1-3)Gal(b1-4)GlcNAc(b1-3)Gal(b1-4)GlcNAc(b1-2)Man(a1-6)]Man(b1-4)GlcNAc(b1-4)[Fuc(a1-6)]GlcNAc
# Procedure, shortened: as §1
# [6] = target: Gal(b1-4)GlcNAc(b1-3)Gal(b1-4)GlcNAc(b1-3)Gal(b1-4)GlcNAc(b1-3)Gal(b1-4)GlcNAc(b1-3)Gal(b1-4)GlcNAc(b1-2)[Gal(b1-4)GlcNAc(b1-3)Gal(b1-4)GlcNAc(b1-3)Gal(b1-4)GlcNAc(b1-3)Gal(b1-4)GlcNAc(b1-3)Gal(b1-4)GlcNAc(b1-6)]Man(a1-6)[Gal(b1-4)GlcNAc(b1-3)Gal(b1-4)GlcNAc(b1-3)Gal(b1-4)GlcNAc(b1-3)Gal(b1-4)GlcNAc(b1-3)Gal(b1-4)GlcNAc(b1-2)Man(a1-3)]Man(b1-4)GlcNAc(b1-4)[Fuc(a1-6)]GlcNAc
# Procedure, shortened: as §1
# [7] = target: Gal(b1-4)GlcNAc(b1-3)Gal(b1-4)GlcNAc(b1-3)Gal(b1-4)GlcNAc(b1-3)Gal(b1-4)GlcNAc(b1-3)Gal(b1-4)GlcNAc(b1-3)Gal(b1-4)GlcNAc(b1-2)Man(a1-3)[Gal(b1-4)GlcNAc(b1-3)Gal(b1-4)GlcNAc(b1-3)Gal(b1-4)GlcNAc(b1-3)Gal(b1-4)GlcNAc(b1-3)Gal(b1-4)GlcNAc(b1-3)Gal(b1-4)GlcNAc(b1-2)Man(a1-6)]Man(b1-4)GlcNAc(b1-4)GlcNAc
# Procedure, shortened: as §1
# [8] = target: Gal(b1-4)GlcNAc(b1-3)Gal(b1-4)GlcNAc(b1-3)GalNAc
# Procedure, shortened: as §1
# [9] = target: Gal(b1-4)GlcNAc(b1-3)Gal(b1-4)GlcNAc(b1-3)[Gal(b1-4)GlcNAc(b1-3)Gal(b1-4)GlcNAc(b1-6)]GalNAc
# Procedure, shortened: as §1
# [10] = target: Gal(b1-4)GlcNAc(b1-3)Gal(b1-4)GlcNAc(b1-6)[Gal(b1-3)]GalNAc
# Procedure, shortened: as §1
# [11] = target: Gal(b1-4)GlcNAc(b1-3)Gal(b1-4)[Fuc(a1-3)]GlcNAc(b1-3)Gal(b1-4)[Fuc(a1-3)]GlcNAc
# Procedure, shortened: as §1
# [12] = target: Gal(b1-4)GlcNAc(b1-3)GalNAc
# Procedure, shortened: as §1
# [13] = target: Gal(b1-4)GlcNAc(b1-3)[Fuc(a1-3)GlcNAc(b1-6)]Gal(b1-4)Glc
# Procedure, shortened: as §1
# [14] = target: Gal(b1-4)GlcNAc(b1-3)[Gal(b1-4)GlcNAc(b1-6)]Gal(b1-4)GlcNAc
# Procedure, shortened: as §1
# [15] = target: Gal(b1-4)GlcNAc(b1-3)[GlcNAc(b1-6)]Gal(b1-4)GlcNAc
# Procedure, shortened: as §1
# [16] = target: Gal(b1-4)GlcNAc(b1-6)Gal(b1-4)GlcNAc
# Procedure, shortened: as §1
# [17] = target: Gal(b1-4)GlcNAc(b1-6)GalNAc
# Procedure, shortened: as §1
# [18] = target: Gal(b1-4)GlcNAc(b1-6)[Gal(b1-3)]GalNAc
# Procedure, shortened: as §1
# [19] = target: Gal(b1-4)GlcNAc(b1-6)[Gal(b1-4)GlcNAc(b1-3)]GalNAc
# Procedure, shortened: as §1
# [20] = target: Gal(b1-4)GlcNAc6P
# Procedure, shortened: as §1
# [21] = target: Gal(b1-6)Gal
# Procedure, shortened: as §1
# [22] = target: Gal3S(b1-3)GalNAc
# Procedure, shortened: as §1
# [23] = target: Gal3S(b1-3)GlcNAc
# Procedure, shortened: as §1
binder,measurement,setting,value
B1,glycan array binding signal (z-score),[1],-0.935
same,glycan array binding signal (z-score),[2],0.228
same,glycan array binding signal (z-score),[3],0.038
same,glycan array binding signal (z-score),[4],0.176
same,glycan array binding signal (z-score),[5],0.668
same,glycan array binding signal (z-score),[6],1.32
same,glycan array binding signal (z-score),[7],0.388
same,glycan array binding signal (z-score),[8],0.538
same,glycan array binding signal (z-score),[9],1.14
same,glycan array binding signal (z-score),[10],0.709
same,glycan array binding signal (z-score),[11],0.527
same,glycan array binding signal (z-score),[12],0.304
same,glycan array binding signal (z-score),[13],-1.23
same,glycan array binding signal (z-score),[14],-0.922
same,glycan array binding signal (z-score),[15],-0.59
same,glycan array binding signal (z-score),[16],-0.248
same,glycan array binding signal (z-score),[17],-0.068
same,glycan array binding signal (z-score),[18],0.143
same,glycan array binding signal (z-score),[19],0.195
same,glycan array binding signal (z-score),[20],0.505
same,glycan array binding signal (z-score),[21],-0.764
same,glycan array binding signal (z-score),[22],0.37
same,glycan array binding signal (z-score),[23],-0.172

# Shown tab-delimited: part of the list above
binder	measurement	setting	value
B1	glycan array binding signal (z-score)	[22]	0.37
same	glycan array binding signal (z-score)	[23]	-0.172
